From patent publication US4937266A, “Inhibitory agent of hepatic fibrosis” (priority 1988, dated 1990)

Test: in vivo
Conditions: mouse, po

With `CC(C)(CO)[C@@H](O)C(=O)NCCC(=O)NCCSSCCNC(=O)CCNC(=O)[C@H](O)C(C)(C)CO` [Pantethine, D-bis-(N-pantothenyl-β-aminoethyl)-disulfide] the LD50 was > 10000 mg/kg.
